## Percent effect of library compounds

From ChEMBL document CHEMBL3988442, “University of Dundee, Small-Polar-MMV Screening Library” (2021).

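Phenotypic screen: M. tuberculosis growth, glucose 7H9 medium, 3 days; the read-out is not stated. Compounds at 500 µM. Direction is inferred from retests: higher values go with more growth inhibition. Of about 18,000 compounds tested this way, about 1,400 (7.9%) reached 50% or more in at least one test.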

The filed quantity is “Percent Effect” (%).
The record does not define 0% and 100%; most values in the screen are far below 50% and negative numbers occur (in some assays of this library far below -100).
Compounds were drawn at random from those tested, without regard to their results.

compound | percent effect
CC(C)(C)OCCO[C@H]1C[C@@H](O)C1 | -4.629
CNC(=O)C(O)CNS(=O)(=O)c1ccc(C)cc1F (stereo not shown) | 7.335
CN(Cc1ccccc1)C(=O)NC1CCCCNC1=O (stereo not shown) | 49.7
Nc1nc2c(s1)Cc1ccccc1-2 | 30.81
O=c1cnc2cc(Cl)c(Cl)cc2n1CCO | -1.02
CN(C)C(=O)CSCC(=O)NCc1ccc(Cl)cc1 | 64.1
COCC(=O)NC(C)Cc1ccco1 (stereo not shown) | 30.18
CCOC(=O)CSc1n[nH]c(-c2cccnc2)n1 | 15.63
CC1CN(C(=O)c2cccc(-n3cnnn3)c2)CCO1 (stereo not shown) | -12.68
O=C(NCC1CCS(=O)(=O)C1)c1sccc1OC(F)F (stereo not shown) | 1.084
OCC(NC1CCN(c2nccs2)CC1)c1ccco1 (stereo not shown) | 14.47
COCC(C)NC(=O)CCNC(=O)c1cccc(C)c1 (stereo not shown) | 7.926
COCCC(N)c1ccco1 (stereo not shown) | -11.43
COCCN(C)C[C@@H]1CN(C(=O)C2CCC2)C[C@@H]1CO | -10.82
CC(C)(C)OC(=O)NCC1CNCCO1 (stereo not shown) | 8.563
CN1CCOC(CNc2nccs2)C1 (stereo not shown) | 3.736
CCN(C(=O)CSC(F)(F)F)C1CCS(=O)(=O)C1 (stereo not shown) | -4.405
CCN(CC)C1CCN(C(=O)Nc2cccnn2)C1 (stereo not shown) | -8.269
CC1CCN(CC(=O)NC(C)(C#N)C2CC2)CC1 (stereo not shown) | 5.615
CC(C(=O)Nc1ccc(Br)cc1)n1cnnn1 (stereo not shown) | 72.61
Cc1cccc(NCC2(CS(C)(=O)=O)CC2)n1 | 7.197
CCN(CC)CC(=O)NCc1ccco1 | 6.602
CO[C@H]1CNCC1NS(=O)(=O)CCOC(C)C (stereo partly shown) | 9.766
c1cnn(CCCNCCCn2cccn2)c1 | -3.976
COCc1ccc(C(=O)N2C[C@H]3CNC[C@H]3C2)o1 | -14.8
Cc1cc(NC(=O)NCC[S+]([O-])C(C)(C)C)no1 (stereo not shown) | -4.331
Cc1cc(C)c2cc(C(=O)NCCO)[nH]c2c1 | 35.97
CC(=O)c1sc(NCCc2ccccn2)nc1C | 56.06
N[C@@H]1CCO[C@H]1c1ccc(=O)[nH]c1 | 1.534
CNC(=O)CN1CCC(c2ccccc2)CC1 | 48.12
CCC(O)CN1CCN(c2ncccc2Br)CC1 (stereo not shown) | 53.57
COc1ccccc1NC(=O)N1CCCN(C)CC1 | 15.16
CCc1nc(COC)cc(=O)[nH]1 | -2.733
Cn1ncnc1CS(=O)(=O)Cc1cccc(Cl)c1 | 8.212
CC(=O)N[C@@H]1CNC[C@H]1CO | 3.88
O=C(NC1(c2nnc[nH]2)CCC1)c1ccc(Cl)cn1 | -1.774
COc1ccc(NC2CC(=O)N(C)C2=O)cc1OC (stereo not shown) | 15.47
CCOc1ccc(NC(=O)CNC2CC2)cc1 | 5.651
CCN1C[C@@H](CO)[C@H](c2nc(C3CC3)no2)C1 | 0.3493
CSC(C)C(=O)NCCNC(=O)C(C)C (stereo not shown) | 4.872
CN1CCN(C(=O)Nc2c(F)cc(F)cc2Br)CC1=O | -7.861
Cc1cc(C2CCCN2CCS(C)(=O)=O)on1 (stereo not shown) | 10.78
COCc1nn(Cc2csc(C(C)C)n2)c(=O)o1 | 71
CCN(C)c1ccc(CO)cc1 | -3.577
CCOC(=O)CSCN1C(=O)c2ccccc2C1=O | -7.695
CCN1CCN(C(=O)C2CCCOC2)c2ccccc21 (stereo not shown) | 81.85
O=C(CNC(=O)c1ccco1)NCCC1=CCCCC1 | 16.79
CC(CO)(NC(=O)c1c(O)cccc1F)C1CC1 (stereo not shown) | -7.68
CNC(=O)C1CCN(CCCOc2ccccc2)CC1 | -11.39
CNc1nc(C(=O)N2CC(C)(C)[C@@](C)(O)C2)cs1 | 8.902
Cc1ccc(C(=O)N(C)C2CCS(=O)(=O)C2)cc1 (stereo not shown) | 17.82
COCC(NC1CCC2(CC1)OCCO2)c1ccco1 (stereo not shown) | 6.021
CCC(C)(C)OCC(O)CN1CCN(CCO)CC1 (stereo not shown) | 3.158

Some entries from above, unchanged:

compound,percent effect
CCN1CCN(C(=O)C2CCCOC2)c2ccccc21 (stereo not shown),81.85
CC(C)(C)OCCO[C@H]1C[C@@H](O)C1,-4.629
CCC(C)(C)OCC(O)CN1CCN(CCO)CC1 (stereo not shown),3.158
O=C(NC1(c2nnc[nH]2)CCC1)c1ccc(Cl)cn1,-1.774